Common to all, as to test: co-IP
Test [1] concerns the target T1, Flag-tagged KDM2B (pCMV-3xFlag-KDM2B) (UniProt Q8NHM5).
T1 sequence: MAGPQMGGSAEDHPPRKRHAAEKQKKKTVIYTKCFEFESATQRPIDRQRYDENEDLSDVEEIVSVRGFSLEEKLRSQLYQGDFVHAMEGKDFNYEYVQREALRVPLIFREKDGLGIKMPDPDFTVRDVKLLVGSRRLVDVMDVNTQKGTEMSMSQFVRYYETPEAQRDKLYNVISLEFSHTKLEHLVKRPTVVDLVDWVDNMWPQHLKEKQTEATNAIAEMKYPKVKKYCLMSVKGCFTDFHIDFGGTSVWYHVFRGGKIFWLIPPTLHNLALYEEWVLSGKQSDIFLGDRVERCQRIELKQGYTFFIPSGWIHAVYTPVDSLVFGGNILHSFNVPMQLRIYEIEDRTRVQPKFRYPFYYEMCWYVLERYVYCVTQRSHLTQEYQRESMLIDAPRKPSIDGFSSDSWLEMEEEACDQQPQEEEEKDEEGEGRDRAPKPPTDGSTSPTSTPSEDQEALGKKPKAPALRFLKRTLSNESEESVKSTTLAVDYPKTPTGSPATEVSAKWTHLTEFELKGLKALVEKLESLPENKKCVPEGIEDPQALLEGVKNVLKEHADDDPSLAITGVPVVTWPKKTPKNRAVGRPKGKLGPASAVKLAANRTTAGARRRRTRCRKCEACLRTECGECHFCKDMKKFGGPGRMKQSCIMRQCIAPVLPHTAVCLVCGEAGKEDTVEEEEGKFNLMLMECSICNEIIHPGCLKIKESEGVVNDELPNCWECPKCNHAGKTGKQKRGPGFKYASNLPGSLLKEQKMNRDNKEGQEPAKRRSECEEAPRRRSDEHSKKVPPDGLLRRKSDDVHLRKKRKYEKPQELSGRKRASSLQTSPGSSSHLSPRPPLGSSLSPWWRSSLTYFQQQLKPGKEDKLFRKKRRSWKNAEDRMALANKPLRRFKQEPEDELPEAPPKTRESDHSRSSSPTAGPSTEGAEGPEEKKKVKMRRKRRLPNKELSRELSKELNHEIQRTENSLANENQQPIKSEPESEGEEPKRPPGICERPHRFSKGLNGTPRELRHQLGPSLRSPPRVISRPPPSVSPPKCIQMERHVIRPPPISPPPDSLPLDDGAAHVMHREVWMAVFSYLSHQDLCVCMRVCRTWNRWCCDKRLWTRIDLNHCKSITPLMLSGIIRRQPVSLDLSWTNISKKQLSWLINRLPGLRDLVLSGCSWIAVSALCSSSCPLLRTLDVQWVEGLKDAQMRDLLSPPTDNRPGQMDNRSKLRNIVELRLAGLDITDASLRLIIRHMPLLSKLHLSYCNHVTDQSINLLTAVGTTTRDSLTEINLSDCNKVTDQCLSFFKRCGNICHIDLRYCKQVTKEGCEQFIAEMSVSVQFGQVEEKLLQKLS

The chains behind the UniProt entries cited, without tags or fusion partners.
UniProt P10085: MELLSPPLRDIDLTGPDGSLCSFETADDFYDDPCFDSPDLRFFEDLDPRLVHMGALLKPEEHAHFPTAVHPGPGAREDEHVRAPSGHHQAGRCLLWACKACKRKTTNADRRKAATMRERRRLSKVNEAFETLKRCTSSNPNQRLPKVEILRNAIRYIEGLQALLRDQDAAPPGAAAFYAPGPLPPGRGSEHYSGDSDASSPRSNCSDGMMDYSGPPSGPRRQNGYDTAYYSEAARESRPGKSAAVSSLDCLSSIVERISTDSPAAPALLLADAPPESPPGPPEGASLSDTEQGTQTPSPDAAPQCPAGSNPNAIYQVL
UniProt P47239: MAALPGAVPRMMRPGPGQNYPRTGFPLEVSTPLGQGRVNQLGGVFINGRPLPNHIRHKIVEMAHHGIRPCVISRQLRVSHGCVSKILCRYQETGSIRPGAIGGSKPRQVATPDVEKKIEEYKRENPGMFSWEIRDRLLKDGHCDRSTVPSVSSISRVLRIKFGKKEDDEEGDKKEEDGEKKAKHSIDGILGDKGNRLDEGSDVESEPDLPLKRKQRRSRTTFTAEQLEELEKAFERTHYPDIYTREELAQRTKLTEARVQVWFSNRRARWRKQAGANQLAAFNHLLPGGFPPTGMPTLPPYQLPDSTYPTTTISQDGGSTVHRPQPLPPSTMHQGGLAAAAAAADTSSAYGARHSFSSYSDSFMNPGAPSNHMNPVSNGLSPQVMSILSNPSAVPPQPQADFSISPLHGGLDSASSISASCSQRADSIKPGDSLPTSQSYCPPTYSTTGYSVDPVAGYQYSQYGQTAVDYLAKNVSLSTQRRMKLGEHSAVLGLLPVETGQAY

The target in test [2] is T2, HA-tagged SRF, full length (pCGN-SRF-HA) (UniProt P11831).
T2 sequence: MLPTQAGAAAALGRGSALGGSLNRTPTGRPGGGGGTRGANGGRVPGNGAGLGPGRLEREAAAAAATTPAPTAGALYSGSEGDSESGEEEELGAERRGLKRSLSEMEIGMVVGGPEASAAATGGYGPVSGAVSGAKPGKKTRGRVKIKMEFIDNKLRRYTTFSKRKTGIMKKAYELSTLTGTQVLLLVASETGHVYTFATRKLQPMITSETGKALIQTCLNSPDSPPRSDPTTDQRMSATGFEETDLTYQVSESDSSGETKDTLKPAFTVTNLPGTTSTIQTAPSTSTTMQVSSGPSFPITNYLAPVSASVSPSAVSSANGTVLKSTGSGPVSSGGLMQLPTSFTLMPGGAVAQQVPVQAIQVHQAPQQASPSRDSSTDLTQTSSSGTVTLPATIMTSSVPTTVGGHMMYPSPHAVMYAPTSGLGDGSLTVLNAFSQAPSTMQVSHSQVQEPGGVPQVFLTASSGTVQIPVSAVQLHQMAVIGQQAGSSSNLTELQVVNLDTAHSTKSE

Test [3] addresses T3, endogenous serum response factor (C2C12 cells) (mouse (endogenous in C2C12)) (UniProt Q9JM73).
T3 sequence: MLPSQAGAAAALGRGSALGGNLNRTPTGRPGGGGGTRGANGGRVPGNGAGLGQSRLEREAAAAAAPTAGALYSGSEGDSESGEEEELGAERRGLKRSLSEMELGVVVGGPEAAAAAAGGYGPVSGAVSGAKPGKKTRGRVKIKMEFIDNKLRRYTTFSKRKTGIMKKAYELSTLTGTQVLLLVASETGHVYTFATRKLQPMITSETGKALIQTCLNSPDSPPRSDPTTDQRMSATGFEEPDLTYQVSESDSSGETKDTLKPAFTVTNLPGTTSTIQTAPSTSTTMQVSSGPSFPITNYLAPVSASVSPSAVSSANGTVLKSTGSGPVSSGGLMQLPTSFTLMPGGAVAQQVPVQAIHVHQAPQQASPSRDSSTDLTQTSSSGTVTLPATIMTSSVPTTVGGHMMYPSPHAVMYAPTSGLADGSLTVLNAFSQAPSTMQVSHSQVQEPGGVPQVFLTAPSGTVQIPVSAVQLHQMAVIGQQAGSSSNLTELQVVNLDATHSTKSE

Results are given in words; binding and its absence hold for the method and conditions named. In cells and extracts the contact can be indirect. Some results given as binding are weak or reduced against the parent protein; the word gives no strength. For some of these results: Where a sequence is shown, tags or fusion partners need not be part of it.

For “SRF-C, SRF C domain-containing region (amino acids 222 to 508) (from UniProt P11831 222-508) (domain or fragment)”, the binding entry in test [1] is listed as “no binding”. For the molecule “exogenous MyoD (pHM6-HA-MyoD) (from UniProt P10085 1-318)”, the binding entry in test [1] is recorded as “binds”. Regarding “SRF-A, SRF A domain-containing region (amino acids 1 to 133) (from UniProt P11831 1-133) (domain or fragment)”, in test [1], the binding result is reported as “no binding”. Consider “exogenous Pax7 (pcDNA3-HA-Pax7) (from UniProt P47239 1-503)”, for which, in test [1], the binding result is “binds”.

B1: Flag-tagged KDM2B (pCMV-3xFlag-KDM2B) (protein, UniProt Q8NHM5 1-1336)
chain: T1 sequence
For the molecule B1, in test [2], the binding result is listed as “binds”.

B2: endogenous KDM2B (C2C12 cells) (protein, UniProt Q6P1G2 1-1309)
chain: MEAEKDSGRRLRAIDRQRYDENEDLSDVEEIVSVRGFSLEEKLRSQLYQGDFVHAMEGKDFNYEYVQREALRVPLVFRDKDGLGIKMPDPDFTVRDVKLLVGSRRLVDVMDVNTQKGTEMSMSQFVRYYETPEAQRDKLYNVISLEFSHTKLEHLVKRPTVVDLVDWVDNMWPQHLKEKQTEATNALAEMKYPKVKKYCLMSVKGCFTDFHIDFGGTSVWYHVFRGGKIFWLIPPTLHNLALYEEWVLSGKQSDIFLGDRVERCQRIELKQGYTFFIPSGWIHAVYTPVDSLVFGGNILHSFNVPMQLRIYEIEDRTRVQPKFRYPFYYEMCWYVLERYVYCVTQRSYLTQEYQRELMLIDAPRKTSVDGFSSDSWLDMEEESCEQQPQEEEEEEEDKEEEGDGADKTPKPPTDDPTSPTSTPPEDQDSTGKKPKAPAIRFLKRTLSNESEESVKSTSMPTDDPKTPTGSPATEVSTKWTHLTEFELKGLKALVEKLESLPENKKCVPEGIEDPQALLEGVKNVLKEHVDDDPTLAITGVPVVSWPKKTAKNRVVGRPKGKLGPASAVKLAANRTTAGARRRRTRCRKCEACLRTECGECHFCKDMKKFGGPGRMKQSCIMRQCIAPVLPHTAVCLVCGEAGKEDTVEEEEGKFNLMLMECSICNEIIHPGCLKIKESEGVVNDELPNCWECPKCNHAGKTGKQKRGPGFKYASNLPGSLLKEQKMNRDNKEGQEPAKRRSECEEAPRRRSDEHPKKVPADGILRRKSDDVHLRRKRKYEKPQELSGRKRASSLQTSPGSSSHLSPRPPLGSSLSPWWRSSLTYFQQQLKPGKEDKLFRKKRRSWKNAEDRLSLANKPLRRFKQEPEDDLPEAPPKTRESDQSRSSSPTAGPSTEGAEGPEEKKKVKMRRKRRLVNKELSKELSKELNHEIQKTESTLAHESQQPIKSEPESENDEPKRPLSHCERPHRFSKGLNGTPRELRHSLGPGLRSPPRVMSRPPPSASPPKCIQMERHVIRPPPISPPPDSLPLDDGAAHVMHREVWMAVFSYLSHRDLCVCMRVCRTWNRWCCDKRLWTRIDLNRCKSITPLMLSGIIRRQPVSLDLSWTNISKKQLSWLINRLPGLRDLVLSGCSWIAVSALCSSSCPLLRTLDVQWVEGLKDAQMRDLLSPPTDNRPGQMDNRSKLRNIVELRLAGLDITDVSLRLIIRHMPLLSKLQLSYCNHINDQSINLLTAVGTTTRDSLTEVNLSDCNKVTDLCLSFFKRCGNICHIDLRYCKQVTKEGCEQFIAEMSVSVQFGQVEEKLLQKLS
B2: in test [3], the binding entry was “binds”.

B3: endogenous SET7 (C2C12 cells) (enzyme, UniProt Q8VHL1 1-366)
chain: MDSDDEVVEEAVEGHLDDDGLPHGFCTVTYSSTDRFEGNFVHGEKNGRGKFFFFDGSTLEGYYVDDALQGQGVYTYEDGGVLQGTYVDGELNGPAQEYDSDGRLIFKGQYKDNNRHGVCWIHYPDGGSLVGEVNEDGEMTGEKIAYVYPDQRTALYGKFIDGEMLEGKLATLMATEEGRPHFEVTSGSSVYHFDKSTSSCISSDALLPDPYESERVYVADSLISSAGEGLFSKVAVGPNTVMSFYNGVRITHQEVDSRDWALNGNTLSLDEETVIDVPEPYNHVSKYCASLGHKANHSFTPNCVYDLFVHPRFGPIKCIRTLRAVEAEEELTVAYGYDHSPPGKSGPEAPEWYQVELKAFQATQQK
Turning to B3, in test [3], the binding result was “binds”.

The values above are taken from article doi:10.1101/2020.04.17.046342.
